This experiment concerns L1210 leukemia ip in BDF1 mice, survival T/C. Kind of experiment: NCI In Vivo Anticancer Drug Screen. Data for tumor model L1210 Leukemia (intraperitoneal) in B6D2F1 (BDF1) mice. As to conditions: T/C endpoint: mean survival time, higher T/C = longer survival.
The mark [1] stands for this setting: dose: 100.0 mg/kg/injection, schedule: Q04DX003 (ip), vehicle: saline with Tween-80.
Setting [2] is: dose: 400.0 mg/kg/injection, schedule: Q04DX003 (ip), vehicle: saline with Tween-80.
Setting [3] is: dose: 50.0 mg/kg/injection, schedule: Q01DX009 (ip), vehicle: saline.
Setting [4] is: dose: 100.0 mg/kg/injection, schedule: Q04DX003 (ip), vehicle: saline.
The mark [5] stands for this setting: dose: 150.0 mg/kg/injection, schedule: Q01DX001 (ip), vehicle: saline.
Setting [6] is: dose: 200.0 mg/kg/injection, schedule: Q04DX003 (ip), vehicle: saline.
Setting [7] is: dose: 400.0 mg/kg/injection, schedule: Q04DX003 (ip), vehicle: saline.
[8] abbreviates: dose: 100.0 mg/kg/injection, schedule: Q01DX001 (ip), vehicle: saline.
Where [9] appears, read: dose: 400.0 mg/kg/injection, schedule: Q01DX009 (ip), vehicle: saline with Tween-80.

SMILES strings stand for the structures. The list shows only some results of the screen, not a fair sample: it gathers tests that were run many times, whatever their T/C, doses with no T/C, and many T/C values between a quarter and a half above the control. Other doses and runs of a compound stand elsewhere. T/C: endpoint of the treated group in % of that of the vehicle group. Some doses have a count of surviving animals in place of a T/C: the source holds a T/C of zero for them, seemingly a mark for toxic or unscored doses. Some survivor counts are full or nearly so, which does not show that the dose was tolerated: the source hardly ever lists a survival T/C far under the control, and the zero likely stands for such cases as well. Counts of survivors are from the toxicity check (mostly the fifth day) where no day follows; animals may have died later. Schedules are NCI's codes, read here as Q, the interval in days (D) or hours (H), X, the number of doses. Some doses were run more than once; the values are given in rising order. For survival time, this PubChem deposit counts one and a half times the control or more as active, and values a quarter to a half above the control carry no call in these data; other NCI protocols may use other cut-offs. Some schedules carry Z or #; the key to these is not given. Some T/C values are followed by the survivors on the day toxicity was checked, most often the fifth; without a count, all were alive then.

`CCC(C)C#N` (centres undefined): the survivor count is on record as 0 of 6 under setting [1]; 0 of 6 (dose: 200.0 mg/kg/injection, schedule: Q04DX003 (ip), vehicle: saline with Tween-80); 0 of 6 under setting [2].

Turning to `OCCN1CCN(CC/C=C2\c3ccccc3COc3ccc(Cl)cc32)CC1`, the survivor count is 3 of 6 (dose: 6.25 mg/kg/injection, schedule: Q03HX024 (ip), vehicle: saline); 5 of 6 (dose: 12.5 mg/kg/injection, schedule: Q01DX009 (ip), vehicle: saline); 0 of 6 (dose: 12.5 mg/kg/injection, schedule: Q03HX024 (ip), vehicle: saline); 2 of 6 and 6 of 6 (dose: 25.0 mg/kg/injection, schedule: Q01DX009 (ip), vehicle: saline); 6 of 6 (dose: 32.0 mg/kg/injection, schedule: Q01DX009 (ip), vehicle: saline); 2 of 6 and 3 of 6 under setting [3]. Besides, the survivor count was 0 of 4 and 4 of 6 under setting [4]; 2 of 6 under setting [5]; 0 of 4 under setting [6]; 0 of 6 (dose: 300.0 mg/kg/injection, schedule: Q01DX001 (ip), vehicle: saline); 0 of 4 under setting [7]. Also, the T/C is 128 % of control [3 of 4 alive] (dose: 25.0 mg/kg/injection, schedule: Q04DX003 (ip), vehicle: saline); 128 [5 of 6 alive] and 132 % of control (dose: 50.0 mg/kg/injection, schedule: Q04DX003 (ip), vehicle: saline).

Consider `O=C1C(=C(C(F)(F)F)C(F)(F)F)CCc2ccccc21`, for which the survivor count is, setting by setting: (dose: 200.0 mg/kg/injection, schedule: Q01DX009 (ip), vehicle: Klucel (hydroxypropylcellulose) (HPC)) 5 of 6; (dose: 400.0 mg/kg/injection, schedule: Q01DX001 (ip), vehicle: Klucel (hydroxypropylcellulose) (HPC)) 1 of 6.

On to `CCCCn1cnc2c(=S)nc(N)[nH]c21`, for which the T/C is 137 % of control (dose: 7.5 mg/kg/injection, schedule: Q01DX Z (ip), vehicle: methylcellulose (MC)); 132 % of control (dose: 11.0 mg/kg/injection, schedule: Q01DX Z (ip), vehicle: methylcellulose (MC)); 126 % of control (dose: 29.0 mg/kg/injection, schedule: Q04DX003 (ip), vehicle: saline with Tween-80); 147 % of control [5 of 6 alive] (dose: 44.0 mg/kg/injection, schedule: Q04DX003 (ip), vehicle: saline with Tween-80); 144 % of control (dose: 66.0 mg/kg/injection, schedule: Q04DX003 (ip), vehicle: saline with Tween-80); 146 % of control under setting [1]. The T/C (dose: 150.0 mg/kg/injection, schedule: Q04DX003 (ip), vehicle: saline with Tween-80) was 142 % of control.

`ClCc1ccc(-c2ccc(CCl)cc2)cc1`: the survivor count (dose: 600.0 mg/kg/injection, schedule: Q01DX015 (ip), vehicle: carboxymethylcellulose (CMC)) is on record as 6 of 6.

For `C[N+]1(C)Cc2ccccc2-c2ccccc2C1`, the survivor count is 5 of 6 under setting [3], 0 of 6 under setting [4], 0 of 6 under setting [6] and 0 of 6 under setting [7].

Take `N=C(N)SCc1c(-c2ccccc2)oc(-c2ccccc2)c1CSC(=N)N`: the survivor count was 4 of 6 (dose: 25.0 mg/kg/injection, schedule: Q01DX009 (ip), vehicle: saline with Tween-80); 3 of 6 (dose: 50.0 mg/kg/injection, schedule: Q04DX003 (ip), vehicle: saline with Tween-80); 0 of 6 (dose: 100.0 mg/kg/injection, schedule: Q01DX001 (ip), vehicle: other); 0 of 6 (dose: 200.0 mg/kg/injection, schedule: Q01DX001 (ip), vehicle: other); 0 of 6 (dose: 400.0 mg/kg/injection, schedule: Q01DX001 (ip), vehicle: other).

With `O=C1c2ccccc2C(=O)c2c(O)c3c(c(O)c21)CCCC3OC1OC(CO)C(O)C(O)C1O` (centres undefined), the survivor count is, setting by setting: under setting [8], 4 of 4; (dose: 200.0 mg/kg/injection, schedule: Q01DX001 (ip), vehicle: saline) 4 of 4.

`O=NN(CCCl)C(=O)N[C@H]1CCCC[C@H]1Cl`: the T/C by setting is: (dose: 8.0 mg/kg/injection, schedule: Q01DX001 (ip), vehicle: carboxymethylcellulose (CMC)) 127 % of control; (dose: 18.0 mg/kg/injection, schedule: Q01DX001 (ip), vehicle: carboxymethylcellulose (CMC)) 127 % of control; (dose: 26.0 mg/kg/injection, schedule: Q01DX001 (ip), vehicle: carboxymethylcellulose (CMC)) 144 % of control. Moreover, the survivor count by setting is: (dose: 250.0 mg/kg/injection, schedule: Q01DX001 (ip), vehicle: carboxymethylcellulose (CMC)) 6 of 6; (dose: 375.0 mg/kg/injection, schedule: Q01DX001 (ip), vehicle: carboxymethylcellulose (CMC)) 5 of 6; (dose: 500.0 mg/kg/injection, schedule: Q01DX001 (ip), vehicle: carboxymethylcellulose (CMC)) 6 of 6.

Take `C1OC1C1CO1` (centres undefined): the survivor count is, setting by setting: (dose: 66.0 mg/kg/injection, schedule: Q01DX001 (ip), vehicle: saline) 1 of 4; (dose: 80.0 mg/kg/injection, schedule: Q01DX001 (ip), vehicle: saline) 0 of 4; under setting [8], 0 of 4; under setting [4], 0 of 6; under setting [5], 0 of 4; under setting [6], 0 of 6. The survivor count under setting [7] is 0 of 6.

Turning to `Fc1ccc2[nH]c3c(c2c1)C[P+](Cc1cccc2ccccc12)(c1ccccc1)CC3` (centres undefined), the survivor count under setting [7] is 6 of 6.

For the molecule `NS(=O)(=O)c1ccc(NC(=O)Nc2ccccc2)cc1`, the survivor count (dose: 400.0 mg/kg/injection, schedule: Q01DX009 (ip), vehicle: Klucel (hydroxypropylcellulose) (HPC)) is listed as 2 of 6.

With `COc1cc(N=Nc2ccccc2C(=O)O)ccc1O`, the survivor count under setting [9] is 2 of 6.

Consider `C1=Nc2c(ccc3ccccc23)CS1`, for which the survivor count is, setting by setting: (dose: 200.0 mg/kg/injection, schedule: Q04DX002 (ip), vehicle: other) 1 of 3; (dose: 400.0 mg/kg/injection, schedule: Q04DX002 (ip), vehicle: other) 1 of 3.

For the molecule `O=C(c1ccccc1)c1cc(Cl)ccc1N1C(=O)C=CC1=O`, the survivor count (dose: 50.0 mg/kg/injection, schedule: Q04DX002 (ip), vehicle: saline with Tween-80) is listed as 0 of 3; the survivor count (dose: 100.0 mg/kg/injection, schedule: Q04DX002 (ip), vehicle: saline with Tween-80) is reported as 0 of 3; the survivor count (dose: 200.0 mg/kg/injection, schedule: Q04DX002 (ip), vehicle: saline with Tween-80) is 0 of 3; the survivor count (dose: 400.0 mg/kg/injection, schedule: Q04DX002 (ip), vehicle: saline with Tween-80) is given as 0 of 3.

Turning to `C=C(Cl)c1c(C)cc(C)cc1C`, the survivor count (dose: 200.0 mg/kg/injection, schedule: Q01DX009 (ip), vehicle: saline with Tween-80) is listed as 2 of 6; the survivor count under setting [9] was 0 of 6; the survivor count under setting [2] is 0 of 6.

For `O=C(O)CC1CCCCC1CC(=O)O` (centres undefined), the T/C (dose: 100.0 mg/kg/injection, schedule: Q04DX002 (ip), vehicle: Klucel (hydroxypropylcellulose) (HPC)) is 127 % of control.

`O=C(O)CSc1ccccc1C(=O)O`: the survivor count (dose: 400.0 mg/kg/injection, schedule: Q01DX001 (ip), vehicle: saline) is 2 of 4.

Values taken from PubChem BioAssay AID248 (DTP/NCI, 2004).
